Some of the results follow.

The chains behind the UniProt entries cited, without tags or fusion partners.
UniProt Q0JBA9, entry or part of it: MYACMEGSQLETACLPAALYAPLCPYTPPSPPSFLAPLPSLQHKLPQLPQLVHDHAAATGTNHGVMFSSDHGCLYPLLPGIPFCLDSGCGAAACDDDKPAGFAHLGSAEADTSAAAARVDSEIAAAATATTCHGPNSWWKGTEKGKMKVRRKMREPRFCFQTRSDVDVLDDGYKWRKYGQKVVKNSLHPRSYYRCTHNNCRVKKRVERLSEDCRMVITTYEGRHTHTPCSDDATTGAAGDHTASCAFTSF

This assay concerns the target OsWRKY34 (Oryza sativa, UniProt Q0JBA9 1-250). Nature of the assay: protein-binding microarray (RPBM); PBS, 2% BSA, 51.3 ng/ul salmon testes DNA, 50 uM zinc acetate, 200 nM TF, 25 C, 1 h; high values mean tight binding. The note with it: protein: recombinant; tags: N-terminal polyhistidine and DsRed monomer fusion (pET32a); label: CyDye5-dUTP incorporated in the synthesized complementary strand; 3' TTTTT single-stranded linker to array surface; dsDNA, one strand shown. Summed up:
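The binding signal for each feature is its fluorescence intensity in arbitrary units. An Axon 4000B scanner was used to read a custom Agilent array that had been made double-stranded with Cy5-dUTP primer extension, blocked with 2% BSA, incubated at 25 °C for 1 h with 200 nM protein in PBS, 2% BSA, salmon testes DNA and 50 µM zinc acetate, and washed. The protein was an N-terminal polyhistidine–DsRed transcription factor fusion from E. coli BL21-CodonPlus, purified on Ni–NTA.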
On to “TCTCTTCCTTCTCACCGATCCTGGAATGGTCTCGGAGGGTCGGAGTCACCTAGTGCAG”, for which the binding signal is 8400 fluorescence intensity (a.u.).

Regarding “ACACGCTACTAATTGTCAGCTTGCCTGTTACGGAGTACATCGGAGTCACCTAGTGCAG”, the binding signal is 8100 fluorescence intensity (a.u.).

In the case of “ATACCCGGTCCTACCTGTCATATATATATTACGTCTTAGACGGAGTCACCTAGTGCAG”, the binding signal was 8410 fluorescence intensity (a.u.).

“CTAATAACTTTCTTGTTTTGCGTACCCACTTAATCTTATTCGGAGTCACCTAGTGCAG”: the binding signal was 10400 fluorescence intensity (a.u.).

In the case of “GTCTTGGCGTATGTTGGCTTATATGTTGATCTTGTGTCTTCGGAGTCACCTAGTGCAG”, the binding signal is 12300 fluorescence intensity (a.u.).

On to “CCTTCTTCTTTATTGTTTATCCGCAACGTTGCCAAATCCTCGGAGTCACCTAGTGCAG”, for which the binding signal was 8840 fluorescence intensity (a.u.).

“TTGCTCTGTAGCAGCAATGGAGGGAGGAGGGTGGGTGGTGCGGAGTCACCTAGTGCAG”: the binding signal was 11200 fluorescence intensity (a.u.).

Regarding “GTCACCGCCCTCCGTTTCAGCGCCGGCCTTTGTCCGCACGCGGAGTCACCTAGTGCAG”, the binding signal is 11800 fluorescence intensity (a.u.).

Take “TTTTTTCCTTTTTCTTTTTCTTTTTTTTCATTTTTTTTAACGGAGTCACCTAGTGCAG”: the binding signal was 13000 fluorescence intensity (a.u.).

As to “CGATCTCATGGAAGCACGCCGCCGATCTGCTCATCGCATCCGGAGTCACCTAGTGCAG”, the binding signal is 9100 fluorescence intensity (a.u.).

For the sequence “CTGTGCACACACGCTACGTCGTCCCGTGCGCATGTATCTCCGGAGTCACCTAGTGCAG”, the binding signal is 8160 fluorescence intensity (a.u.).

Turning to “GATAGTTCATGTTCATTCTCACTCGCTGTACTCTTAAGTACGGAGTCACCTAGTGCAG”, the binding signal was 11400 fluorescence intensity (a.u.).

In the case of “GGGTTTCCTTGAGGGTAGTTTGGGCATTATGATTTTTAATCGGAGTCACCTAGTGCAG”, the binding signal was 15300 fluorescence intensity (a.u.).

Regarding “CCACACTCCCACCACCACCACCCTCGCCGCAAAAAGGCAACGGAGTCACCTAGTGCAG”, the binding signal is 8140 fluorescence intensity (a.u.).

For the sequence “TTTCTTCAGCCCCATTTGGCCATTTCATCTTCTCTCCTCTCGGAGTCACCTAGTGCAG”, the binding signal was 9390 fluorescence intensity (a.u.).

For “TAAACTTTAAATTTTTCCGTCACATCATTTTAATTTCAACCGGAGTCACCTAGTGCAG”, the binding signal was 8460 fluorescence intensity (a.u.).

Take “TAAAAACGTGCATTCCAAATCTTTTACGCATGCTTATCATCGGAGTCACCTAGTGCAG”: the binding signal was 8170 fluorescence intensity (a.u.).

For “AGTTGTATTGATGGATAGGTTGGTGAGGGGTATTAAATGGCGGAGTCACCTAGTGCAG”, the binding signal is 8070 fluorescence intensity (a.u.).

Take “CGGTTGATCGTCTGACGTATCCTTATCCTGTTGCTTGTCTCGGAGTCACCTAGTGCAG”: the binding signal is 9960 fluorescence intensity (a.u.).

On to “CTTTCAGTTTGACCACTTACTACCTTAGGTACTTTTTTGTCGGAGTCACCTAGTGCAG”, for which the binding signal was 8040 fluorescence intensity (a.u.).

Turning to “TTCAAATCTCTAGGACGATTCTAACTTTTCCTTGTTTTCCCGGAGTCACCTAGTGCAG”, the binding signal is 8680 fluorescence intensity (a.u.).

As for “CGCCCGCGGTATTTATTTTTTATTTTATTATTATTTTAATCGGAGTCACCTAGTGCAG”, the binding signal is 9750 fluorescence intensity (a.u.).

In the case of “CACCTATGATTTTGTTAGTTTTTATACATGCCAATTATATCGGAGTCACCTAGTGCAG”, the binding signal is 8740 fluorescence intensity (a.u.).

Consider “ATACGTGATCACGCCATGCATATGCGTTCGGTTGTCCGCGCGGAGTCACCTAGTGCAG”, for which the binding signal is 9450 fluorescence intensity (a.u.).

“GGAGGGAGGTGTTGGATGTTAGCAGTAATCTTGTGTGCCACGGAGTCACCTAGTGCAG”: the binding signal was 9140 fluorescence intensity (a.u.).

As for “CCTCCGCTTCCCTCTTCTCACGTCATGATAGCCGCCGAGGCGGAGTCACCTAGTGCAG”, the binding signal was 8740 fluorescence intensity (a.u.).

Consider “AGGCTATTTACCACTCCCTGCCACTGCAGCACACCGACACCGGAGTCACCTAGTGCAG”, for which the binding signal was 9280 fluorescence intensity (a.u.).

Consider “GTCACTTTCTTTTGTCGATTGACAGAGTCTCGTGCAATTGCGGAGTCACCTAGTGCAG”, for which the binding signal was 8520 fluorescence intensity (a.u.).

“CGGCCTCCACTCCCGTCTCCCCGCGACTTCGCCCGCCGCGCGGAGTCACCTAGTGCAG”: the binding signal was 8180 fluorescence intensity (a.u.).

For “TTCATCTGCTTCGTCCTCAGATCCGATCTCTCTTCTCATTCGGAGTCACCTAGTGCAG”, the binding signal is 11600 fluorescence intensity (a.u.).

For “AGTGGAGGGAGATAATCACAGTAGTACCAAATTCTCTAAGCGGAGTCACCTAGTGCAG”, the binding signal is 8100 fluorescence intensity (a.u.).

As to “CTTTTGTTGATTCTTGTCCATGATCCCAAGTCATCACTTTCGGAGTCACCTAGTGCAG”, the binding signal was 8780 fluorescence intensity (a.u.).

Take “CTTTGCTCACTCTTTCTTTTCTCTTCAGGTCTCCATTCTTCGGAGTCACCTAGTGCAG”: the binding signal was 12200 fluorescence intensity (a.u.).

As for “GTACTGGTTAGTTTTGTCTTGGCTCTGAAACTTTTATAGCCGGAGTCACCTAGTGCAG”, the binding signal was 12000 fluorescence intensity (a.u.).

For “TAATCACCCTATTAACCTGCATTTCTCATCTACCCCTTCACGGAGTCACCTAGTGCAG”, the binding signal was 9900 fluorescence intensity (a.u.).

Turning to “GTAGCTCATTTTCTTTGACGTGTATTTTTGTGTCTTACATCGGAGTCACCTAGTGCAG”, the binding signal is 8840 fluorescence intensity (a.u.).

Turning to “GGGTGTCAAATTTTTAAGTATCACATCGGGTATTATATAGCGGAGTCACCTAGTGCAG”, the binding signal was 9600 fluorescence intensity (a.u.).

As to “CAGTTTTGACTCCGGTTTTATTCGATGTGGCAGCTGACTCCGGAGTCACCTAGTGCAG”, the binding signal is 13200 fluorescence intensity (a.u.).

Regarding “TTTGTTCAGGTTATATTATGTTGTCAATAGAAAATTTATTCGGAGTCACCTAGTGCAG”, the binding signal is 8090 fluorescence intensity (a.u.).

Consider “TATTTCCTTTAACCTTTCCCCTTGCTGGTTCTTTTATCTTCGGAGTCACCTAGTGCAG”, for which the binding signal was 13700 fluorescence intensity (a.u.).

As for “TCTCAGTTCTCACCCTGCTAGGCTGCTAGACCCTCTCTTCCGGAGTCACCTAGTGCAG”, the binding signal was 8180 fluorescence intensity (a.u.).

With “GTGCATGGTGGCGGTGGAGGTTCATGTGTTCTTGGTTGAACGGAGTCACCTAGTGCAG”, the binding signal was 10300 fluorescence intensity (a.u.).

The record behind these values is publication PMC7819943, “Rice protein-binding microarrays: a tool to detect cis-acting elements near promoter regions in rice”.
